PubChem BioAssay AID1347076 (National Center for Advancing Translational Sciences (NCATS), 2019)
Screen size: about 400,000 compounds; about 13,000 (3.2%) were called active. Inconclusive means that the source gave no clear call. Such entries were picked first, then a sample of the others. The call rests on the fitted dose curve; in most records, active means well fitted cell-killing curve with a large enough effect; inconclusive means small, poorly fitted or top-dose-only effect, or effect the other way; inactive means flat fitted curve, though single readings scatter. Potencies beside an inconclusive call are fits to weak or partial responses and may not hold up.

Test: qHTS assay for MDR1-selective chemotherapeutics: Primary screen using the drug-selected MDR subline cells KB-V1; further: nearly all actives have a fitted effect of over 60% in size
Details: KB-V1 MDR cells viability, CellTiter-Glo, 72 h; activity change, negative = cytotoxicity: at 46.1 µM (top of the series)
Method in brief: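 Readout: CellTiter-Glo luminescence, 10 min after addition. Cells: KB-V1 MDR subline, 72 h at 37 degrees C with compound. Analysis: corrected, normalized data fitted to concentration-effect curves.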
On the % scale 0 is the no-effect control and ±100 the full control effect; potency means the concentration at half of the fitted maximal effect.

SMILES | activity change, negative = cytotoxicity | Potency
COc1ccc(NC(=O)CCCSc2nc(-c3ccco3)cc(C(F)(F)F)n2)cc1 | inactive: -22.1% | –
CCC(=O)N1c2ccccc2C(N(C(=O)CC)c2ccccc2)CC1C (stereo not drawn) | – | inconclusive: 8.2 µM [cytotoxic, partial curve]
CSc1ccc(CN(C)CC(=O)NCc2ccc(F)cc2)cc1 | – | inconclusive: 20.6 µM [cytotoxic, single point]
OC(c1cccc(Cl)c1)c1ncc(-c2ccc(Oc3ccccc3)cc2)[nH]1 (stereo not drawn) | inactive: 4.09% | –
CO[C@H]1CC[C@@]2(C)[C@@H](CC[C@@H]3[C@@H]2CC[C@@]2(C)[C@H]3C[C@H](C(=O)N[C@@H](CCCN=C(N)N)C(=O)NCC(=O)N[C@@H](CC(=O)O)C(N)=O)O[C@]23CCCO3)C1 | inactive: -2.88% | –
O=C(CCC(=O)N1CCOCC1)c1ccc(F)cc1 | inactive: 4.25% | –
NC(=O)C1CCCN(CCc2ccccc2)C1 (stereo not drawn) | inactive: 2.09% | –
CN(C)c1cccc(C(=O)Nc2nc3ccc(S(=O)(=O)NC(C)(C)C)cc3s2)c1 | – | active: 20.6 µM
CCCCC(=O)NC(c1ccc(Cl)cc1Cl)c1ccc2cccnc2c1O (stereo not drawn) | – | inconclusive: 2.06 µM [cytotoxic, full curve]
CC(=O)N1CCN(c2ccccc2NC(=S)NC(=O)c2cc3ccccc3o2)CC1 | – | inconclusive: 13 µM [rising, single point]
CCCn1nc2cc(C(=O)NCc3ccc(C)cc3)ccc2c1OCC | – | inconclusive: 4.11 µM [rising, full curve, poor fit]
CN(C)CCCNc1cc(-c2ccccc2)nc2cc(-c3cccc(F)c3)nn12 | – | inconclusive: 29.1 µM [cytotoxic, single point]
COC(=O)c1ccc(/C=C(\C#N)c2nc3ccccc3s2)cc1 | inactive: 7.45% | –
O=C(Cc1ccccc1)Nc1cccc(-c2nc3ncccc3o2)c1 | – | inconclusive: 20.6 µM [cytotoxic, single point]
O=C(c1ccccc1)c1ccc2nc(N3CCN(c4ccccc4)CC3)c3nncn3c2c1 | inactive: 5.28% | –
Cc1nc2ccc(S(=O)(=O)CCC(=O)Nc3ccc(C(C)C)cc3)cc2s1 | inactive: -8.17% | –
N#Cc1c([N+](=O)[O-])cc([N+](=O)[O-])cc1S(=O)(=O)Cc1ccccc1 | – | inconclusive: 20.6 µM [cytotoxic, single point]
CC(C)(C)c1ccc(C(=O)Nc2ccc(C(=O)OCc3cc(=O)n4ccsc4n3)cc2)cc1 | – | inconclusive: 29.1 µM [cytotoxic, single point]
COC(=O)[C@@]12CCCN1[C@H](c1ccc(-c3ccc4c(c3)OCO4)cc1)[C@H]1C(=O)N(C)C(=O)[C@H]12 | inactive: -16.4% | –
O=C(CCC1CCCN(C(=O)c2ccccc2Cl)C1)N1CCN(c2ccccn2)CC1 (stereo not drawn) | – | active: 14.6 µM
CCC(CC)C(=O)NCCc1cc2c(OC)ccc(OC)c2[nH]c1=O | – | inconclusive: 20.6 µM [cytotoxic, partial curve]
CCN1CCCC1CNC(=O)Cn1nc(C)n2c(cc3cc(F)ccc32)c1=O (stereo not drawn) | – | inconclusive: 29.1 µM [rising, single point]
COc1ccccc1Oc1ccc2c(c1)C(=O)N(CC1CCCO1)C2=O (stereo not drawn) | inactive: 10.8% | –
COc1cc2c(cc1OC)C(C(N)=O)NCC2 (stereo not drawn) | inactive: 0.359% | –
Cc1csc(NC(=O)C(NC(=O)c2ccccc2F)C(C)C)n1 (stereo not drawn) | – | inconclusive: 29.1 µM [rising, single point]

SMILES | activity change, negative = cytotoxicity | Potency
Cc1onc(-c2ccccc2)c1C(=O)Nc1sc2c(c1C(N)=O)CCC2 | – | inconclusive: 29.1 µM [cytotoxic, single point]
CCOC(=O)c1csc(NC(=O)CN2CCCCC2)n1 | inactive: -11.6% | –
CCOC(=O)C1=C(N)Oc2ccc3ccccc3c2C1c1cccnc1 (stereo not drawn) | – | active: 11.2 µM
CCCCN(C)S(=O)(=O)c1ccc(C(=O)N(CCN(C)C)c2nc3ccc(C)cc3s2)cc1 | inactive: -11.7% | –
C[C@H](NC(=O)c1nc[nH]c1C(=O)N[C@@H](Cc1ccccc1)C(=O)OCc1ccccc1)C(=O)OCc1ccccc1 | – | inconclusive: 0.0052 µM [cytotoxic, full curve, poor fit]
Cc1ccc(C(C)NC(=O)c2ccco2)cc1C (stereo not drawn) | – | inconclusive: 5.17 µM [cytotoxic, partial curve]
Cc1ccc(NC(=O)CSc2nc3c(c(=O)[nH]2)CCC3)cc1Cl | inactive: -5.7% | –
COc1ccc(NC(=O)c2oc3ccccc3c2NC(=O)c2ccco2)cc1 | – | inconclusive: 29.1 µM [cytotoxic, single point]
O=C(CSc1nnc2scc(-c3ccccc3)n12)Nc1nsc(-c2ccc(Cl)cc2)n1 | – | inconclusive: 23.1 µM [cytotoxic, partial curve]
CN(C)/C=C/C(=O)c1cccc(C(F)(F)F)c1 | inactive: -0.982% | –
Clc1ccccc1C(c1nnnn1Cc1ccco1)N1CCN(Cc2ccco2)CC1 (stereo not drawn) | inactive: 0% | –
COc1ccc(CNC(=O)CSc2nc3ccccc3n2C(C)=O)cc1 | – | inconclusive: 18.4 µM [rising, single point]
CCN(CC)c1nc(C#N)nc(OC)n1 | inactive: -5.8% | –
COCCCN(C(C)=O)c1nc(-c2ccccc2)cs1 | – | inconclusive: 18.4 µM [cytotoxic, single point]
Cc1ccc(OC(C)C(=O)Nc2ccc(C)c(S(=O)(=O)Nc3ccc(C)cc3C)c2)cc1 (stereo not drawn) | – | inconclusive: 16.4 µM [cytotoxic, single point]
CC1=CC(C)(C)NC(=O)N1c1ccc(C)cc1 | inactive: -4.69% | –
O=C(Nc1ccccc1)c1ccccc1CCc1ccccc1 | – | inconclusive: 18.4 µM [cytotoxic, partial curve, poor fit]
CC(C)(C)Nc1nc(C(N)=O)nc(N2CCOCC2)n1 | – | inconclusive: 29.1 µM [cytotoxic, single point]
Cc1ccc(Cc2c(-c3ccccc3)nc3c(C)cc(Br)cn23)cc1 | inactive: -25.1% | –
COc1cc(NS(=O)(=O)c2ccc(NC(=S)NC(=O)C(C)(C)C)cc2)nc(OC)n1 | inactive: 4.98% | –
CCOc1ccc(Nc2c3ccccc3nc3ccccc23)cc1 | – | inconclusive: 4.11 µM [cytotoxic, full curve]
CCOC(=O)C1CCN(c2ccc([N+](=O)[O-])c(C(C)=O)c2)CC1 | inactive: 4.32% | –
CCn1c(COc2cccc(C)c2)nc2ccccc21 | – | inconclusive: 29.1 µM [cytotoxic, partial curve, poor fit]
Cc1ccc(C)c(N2CCN(C(=O)C3CCN(C(=O)c4cc5sccc5n4C)CC3)CC2)c1 | – | inconclusive: 29.1 µM [cytotoxic, single point]
C[C@@H](c1ccccc1)N1C[C@H](COCc2ccccc2)Oc2cc(N3CC[C@H](N(C)C)C3)ccc2S1(=O)=O | – | inconclusive: 32.6 µM [cytotoxic, single point]

SMILES | activity change, negative = cytotoxicity | Potency
C[C@@H]1CN([C@@H](C)CO)C(=O)c2cc(Br)cnc2O[C@@H]1CN(C)C(=O)C1CCCCC1 | inactive: -14.1% | –
Cc1cccc(-c2cnc(C(O)c3ccc(-c4ccccc4)cc3)[nH]2)c1 (stereo not drawn) | inactive: 4% | –
CC1CCCC(C)N1C(=O)COC(=O)c1ccccc1C(=O)c1ccccc1 (stereo not drawn) | inactive: -3.83% | –
Cc1ccccc1NS(=O)(=O)c1ccc2c(c1)NC(=O)CCS2 | – | inconclusive: 7.31 µM [cytotoxic, partial curve]
CCN(CC(=O)NCc1cccs1)C(=O)/C=C/c1ccc(C)cc1 | – | inconclusive: 6.51 µM [cytotoxic, partial curve]
O=C(NNC(=S)Nc1ccc(F)c(Cl)c1)c1ccccc1Br | – | inconclusive: 16.4 µM [cytotoxic, single point]
Cc1cc(C)c(Cc2c(C)nc3c(C(=O)NCc4ccco4)cnn3c2C)c(C)c1 | – | active: 2.91 µM
CC(NC(=O)c1ccco1)C(=O)N1CCCCC1 (stereo not drawn) | – | inconclusive: 29.1 µM [rising, single point]
COc1ccc(S(=O)(=O)N2CCC(C(=O)N[C@@H](C)C(=O)NC3CCCC3)CC2)cc1 | inactive: 17.5% | –
Cc1ccc(C2N(c3ccc(Cl)cc3)C(=O)N3CCCN23)cc1 (stereo not drawn) | inactive: -1.32% | –
CN(C(=O)c1ccc(NC(=O)Cc2ccc(NC(=O)C3CCN(C(=O)C4CCCC4)CC3)cc2)cc1)C1CC1 | inactive: -4.71% | –
CCn1c(SCC(=O)Nc2ccccc2)nc2c([nH]c3ccccc32)c1=O | inactive: 11.3% | –
Cc1ccc2cc(C#N)c(SCC(=O)N3CCCc4ccccc43)nc2c1 | inactive: -21% | –
Fc1ccc(Br)cc1C1C=C(c2ccc(Br)cc2)Nc2ncnn21 (stereo not drawn) | – | inconclusive: 29.1 µM [cytotoxic, single point]
Cc1cc(-c2cc(-c3ccc(Cl)cc3)on2)nc(NCC2CC2)n1 | inactive: -2.63% | –
Cc1cccc(OCC(=O)NNC(=O)C2CCN(c3ncnc4sc(C)c(C)c34)CC2)c1 | inactive: -17.4% | –
COc1ccc(O)c(C(=O)c2cnn(C(=O)c3ccc(C)cc3)c2)c1 | – | inconclusive: 29.1 µM [rising, partial curve, poor fit]
CCOc1ccc(C(=O)Nc2ccc(-c3nc4ccccc4o3)cc2)cc1[N+](=O)[O-] | – | inconclusive: 29.1 µM [rising, single point]
CCOc1ccc(NC(=O)c2sc3nc(N4CCOCC4)c4c(c3c2N)CCCC4)cc1 | inactive: -17.5% | –
Cc1ccc(S(=O)(=O)NCc2ccccc2)cc1C(=O)N1CCN(c2ccccc2)CC1 | – | inconclusive: 16.4 µM [cytotoxic, single point]
CC(C)C(=O)Nc1cc2c3c(c1)CCC(=O)N3CCC2 | – | inconclusive: 29.1 µM [rising, single point]
C=Cc1ccc(Cn2c(C)c(C(=O)NCc3ccc(Cl)c(Cl)c3)sc2=O)cc1 | – | inconclusive: 13 µM [cytotoxic, partial curve]
COc1ccc(-c2noc(CCC(=O)NCc3cccnc3)n2)cc1 | – | inconclusive: 20.6 µM [cytotoxic, single point]

Part of the list above, as a markdown table.

| SMILES | activity change, negative = cytotoxicity | Potency |
| --- | --- | --- |
| CCN(CC(=O)NCc1cccs1)C(=O)/C=C/c1ccc(C)cc1 | – | inconclusive: 6.51 µM [cytotoxic, partial curve] |
| O=C(NNC(=S)Nc1ccc(F)c(Cl)c1)c1ccccc1Br | – | inconclusive: 16.4 µM [cytotoxic, single point] |
| Cc1cc(C)c(Cc2c(C)nc3c(C(=O)NCc4ccco4)cnn3c2C)c(C)c1 | – | active: 2.91 µM |
| CC(NC(=O)c1ccco1)C(=O)N1CCCCC1 (stereo not drawn) | – | inconclusive: 29.1 µM [rising, single point] |
| COc1ccc(S(=O)(=O)N2CCC(C(=O)N[C@@H](C)C(=O)NC3CCCC3)CC2)cc1 | inactive: 17.5% | – |
| Cc1ccc(C2N(c3ccc(Cl)cc3)C(=O)N3CCCN23)cc1 (stereo not drawn) | inactive: -1.32% | – |
| CN(C(=O)c1ccc(NC(=O)Cc2ccc(NC(=O)C3CCN(C(=O)C4CCCC4)CC3)cc2)cc1)C1CC1 | inactive: -4.71% | – |
| CCn1c(SCC(=O)Nc2ccccc2)nc2c([nH]c3ccccc32)c1=O | inactive: 11.3% | – |
| Cc1ccc2cc(C#N)c(SCC(=O)N3CCCc4ccccc43)nc2c1 | inactive: -21% | – |
| Fc1ccc(Br)cc1C1C=C(c2ccc(Br)cc2)Nc2ncnn21 (stereo not drawn) | – | inconclusive: 29.1 µM [cytotoxic, single point] |
| Cc1cc(-c2cc(-c3ccc(Cl)cc3)on2)nc(NCC2CC2)n1 | inactive: -2.63% | – |
| Cc1cccc(OCC(=O)NNC(=O)C2CCN(c3ncnc4sc(C)c(C)c34)CC2)c1 | inactive: -17.4% | – |
| COc1ccc(O)c(C(=O)c2cnn(C(=O)c3ccc(C)cc3)c2)c1 | – | inconclusive: 29.1 µM [rising, partial curve, poor fit] |
| CCOc1ccc(C(=O)Nc2ccc(-c3nc4ccccc4o3)cc2)cc1[N+](=O)[O-] | – | inconclusive: 29.1 µM [rising, single point] |
| CCOc1ccc(NC(=O)c2sc3nc(N4CCOCC4)c4c(c3c2N)CCCC4)cc1 | inactive: -17.5% | – |
| Cc1ccc(S(=O)(=O)NCc2ccccc2)cc1C(=O)N1CCN(c2ccccc2)CC1 | – | inconclusive: 16.4 µM [cytotoxic, single point] |
| CC(C)C(=O)Nc1cc2c3c(c1)CCC(=O)N3CCC2 | – | inconclusive: 29.1 µM [rising, single point] |
| C=Cc1ccc(Cn2c(C)c(C(=O)NCc3ccc(Cl)c(Cl)c3)sc2=O)cc1 | – | inconclusive: 13 µM [cytotoxic, partial curve] |
| COc1ccc(-c2noc(CCC(=O)NCc3cccnc3)n2)cc1 | – | inconclusive: 20.6 µM [cytotoxic, single point] |
